Experimental data published in patent US20170247437A1 (ONCOMED PHARMACEUTICALS, published 2017).
Results are given in words; binding and its absence hold for the method and conditions named. Some binding calls cover weakened binding; strength is not graded here. Blank lines part the entries; values can stand above or below the binder they belong to.

By UniProt entry, the sequences of proteins in these tests, tags left out. Where a name states a change or a piece, a line headed by the entry shows the natural chain unless it says otherwise.
UniProt Q2MKA7: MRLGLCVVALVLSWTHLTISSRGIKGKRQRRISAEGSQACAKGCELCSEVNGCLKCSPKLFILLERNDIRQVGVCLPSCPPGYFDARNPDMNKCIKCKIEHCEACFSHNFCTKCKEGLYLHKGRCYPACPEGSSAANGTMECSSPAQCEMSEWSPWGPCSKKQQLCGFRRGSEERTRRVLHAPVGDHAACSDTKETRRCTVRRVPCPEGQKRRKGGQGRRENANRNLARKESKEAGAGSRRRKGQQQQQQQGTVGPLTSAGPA

How the values were obtained:
[1] = target: FLAG-RSPO1furin-CD4TM-GFP (human) (UniProt Q2MKA7); test: FACS, serial antibody dilutions on HEK-293 cells transfected with FLAG-RSPO1furin-CD4TM-GFP, APC anti-IgG detection
[2] = target: T1, recombinant human RSPO1 (R&D Systems) (human, UniProt Q2MKA7 21-263); test: ELISA on plate-coated recombinant human RSPO1; h89M5-H2L2 as reference standard and positive control
T1 construct: Bought protein

- binding [1]: binds
B1: second generation humanized anti-RSPO1 antibody h89M5-H8L5 (antibody, human IgG1, kappa, V domains shown)
VH: EVQLVQSGAEVKKPGESLRISCKGSGYSFTGYTMHWVRQMPGKGLEWMGGINPNNGGTTYNQNFKGHVTISADKSISTAYLQWSSLKASDTAMYYCARKEFSDGYYFFAYWGQGTLVTVSS
VL: DIVMTQSPDSLAVSLGERATINCKASQDVIFAVAWYQQKPGQPPKLLIYWASTRHTGVPDRFSGSGSGTDFTLTISSLQAEDVAVYYCQQHYSTPWTFGGGTKVEIKR
notes: Humanized version of mouse antibody 89M5, with the same CDRs as h89M5-H2L2; also called h89R5-H8L5

- binding [2]: binds
- binding [1]: binds
B2: first generation humanized anti-RSPO1 antibody h89M5-H2L2 (antibody, human IgG2, kappa, V domains shown)
VH: QVQLVQSGAEVKKPGASVKVSCKTSGYTFTGYTMHWVRQAPGQRLEWMGGINPNNGGTTYNQNFKGRVTITRDTSASTAYMELSSLRSEDTAVYYCARKEFSDGYYFFAYWGQGTLVTVSS
VL: DIQMTQSPSSLSASVGDRVTITCKASQDVIFAVAWYQQKPGKAPKLLIYWASTRHTGVPSRFSGSGSGTDYTLTISSLQPEDFATYYCQQHYSTPWTFGGGTKVEIKR
